Assay: general procedure: Fmoc solid-phase peptide synthesis; H-L-Thr(tBu)-ol-2-chlorotrityl resin; Rink amide or Rink amide AM resin; HATU/NMM
Settings: whole synthesis

Substance | crude HPLC purity (RP-HPLC) | isolated yield | final HPLC purity (RP-HPLC)
Fmoc-Hag^3-Phe^6-Phe^7-D-Trp^8-Lys^9-Thr^10-Phe^11-Hag^14-NH2 | around 95% |  | 
unsaturated cyclic peptide of formula (I) in which −Λ is the chelating group DOTA, R=benzyl, R1 is a bond, CH^2 is in D configuration, CH^3 is in L configuration, X=1-Nal Y=D-Tr W=Lys, Z=Thr, R2=-NHThr (ol) |  | 29% | 
Fmoc-Hag^3(allylglycine)-1-Nal^7-D-Trp^8-Lys^9-Thr^10 -Haq^14-Thr(ol)^15 | about 95% |  | 
cyclic unsaturated peptide of formula (I) in which -ΛA is H, R=benzyl, R1 is a bond, CH^2 is in D configuration, CH^3 is in L configuration, X=1-Nal, Y=D-Trp, W=Lys, Z=Thr, R2=-NHThr(ol) |  | 11% | >98%

— patent US20110136741A1 (priority 2008, published 2011)
